Experimental data reported in the supplement of paper PMC12889115.
The list shows a part of the results. These are raw signals, not scaled to a control.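 First-pass screen: polymyxin B was added at a level that permeabilizes the Salmonella outer membrane while sparing the inner membrane. DMSO wells, with and without polymyxin B, defined maximum growth. Because plates differed from one another, each plate's data were ranked separately and the compounds with the lowest OD600 were carried forward as hits.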

Test system: Salmonella enterica serovar Typhimurium SL1344
Assay: bacterial growth OD600 after 18 h with compound and polymyxin B; higher = more bacterial growth (less inhibition)
Settings: 50 µM, Mueller-Hinton broth

## OC1CCCN(CCCNc2nncc(-c3cccc(Cl)c3)n2)C1 (centres undefined)
Polymyxin B 0.75 µg/mL
  bacterial growth OD600: 0.772

## CCNC(=O)c1cn(CC(C)C)cc(C(=O)NCCC(C)C)c1=O
Polymyxin B 0.75 µg/mL
  bacterial growth OD600: 0.728

## O=C1CCC(C(=O)N2CCC(CCn3cccn3)CC2)CN1Cc1ccccn1 (centres undefined)
Polymyxin B 1 µg/mL
  bacterial growth OD600: 0.939

## CC(=O)NCCNc1ccc(-c2nc(-c3ccccc3F)no2)cn1
Polymyxin B 1 µg/mL
  bacterial growth OD600: 1.18

## CC(=O)Nc1cc(C(=O)NCc2nc(-c3ccccc3)cs2)cc2ncn(CCc3ccccn3)c12
Polymyxin B 0.75 µg/mL
  bacterial growth OD600: 0.906

## O=C(Cc1cccnc1)N1CCc2onc(-c3ccc(F)c(F)c3)c2C1
Polymyxin B 0.75 µg/mL
  bacterial growth OD600: 0.724

## COc1cccc(O)c1CN1CCCC(c2[nH]ncc2CC(C)C)C1 (centres undefined)
Polymyxin B 0.75 µg/mL
  bacterial growth OD600: 0.574

## O=C(CCC1CCCN(Cc2ccc(-n3cccn3)cc2)C1)NC1CC1 (centres undefined)
Polymyxin B 1 µg/mL
  bacterial growth OD600: 0.953

## O=C(CCC(F)(F)F)N1CCOc2ccc(C(O)C(c3ccccc3)c3ccccc3)cc2C1 (centres undefined)
Polymyxin B 0.75 µg/mL
  bacterial growth OD600: 0.601
